{
  "sequences": {"note": "Protein sequences, listed by entry. Tags and fused reporters are not part of them. Lines headed by an entry give the natural chain unless they say otherwise; changes in a name come on top.", "UniProt Q4J6C6, whole entry": "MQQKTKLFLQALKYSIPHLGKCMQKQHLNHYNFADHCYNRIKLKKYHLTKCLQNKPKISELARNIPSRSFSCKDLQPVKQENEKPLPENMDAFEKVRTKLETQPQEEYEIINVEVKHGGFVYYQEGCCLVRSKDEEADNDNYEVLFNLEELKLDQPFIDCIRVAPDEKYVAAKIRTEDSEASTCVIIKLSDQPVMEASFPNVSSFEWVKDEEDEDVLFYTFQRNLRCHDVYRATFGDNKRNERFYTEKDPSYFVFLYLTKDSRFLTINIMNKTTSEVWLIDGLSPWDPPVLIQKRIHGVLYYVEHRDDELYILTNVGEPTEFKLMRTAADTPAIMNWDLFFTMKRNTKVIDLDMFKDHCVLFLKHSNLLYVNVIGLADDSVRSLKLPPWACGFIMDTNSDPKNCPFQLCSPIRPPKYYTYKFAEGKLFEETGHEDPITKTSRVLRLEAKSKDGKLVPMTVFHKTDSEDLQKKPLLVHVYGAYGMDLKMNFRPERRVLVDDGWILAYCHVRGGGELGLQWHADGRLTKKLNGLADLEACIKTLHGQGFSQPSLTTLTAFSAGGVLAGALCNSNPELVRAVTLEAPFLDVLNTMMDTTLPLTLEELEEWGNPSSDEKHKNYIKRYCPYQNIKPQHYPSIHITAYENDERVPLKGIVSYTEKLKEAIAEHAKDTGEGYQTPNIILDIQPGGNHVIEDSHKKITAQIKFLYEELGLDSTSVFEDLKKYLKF", "UniProt Q15643": "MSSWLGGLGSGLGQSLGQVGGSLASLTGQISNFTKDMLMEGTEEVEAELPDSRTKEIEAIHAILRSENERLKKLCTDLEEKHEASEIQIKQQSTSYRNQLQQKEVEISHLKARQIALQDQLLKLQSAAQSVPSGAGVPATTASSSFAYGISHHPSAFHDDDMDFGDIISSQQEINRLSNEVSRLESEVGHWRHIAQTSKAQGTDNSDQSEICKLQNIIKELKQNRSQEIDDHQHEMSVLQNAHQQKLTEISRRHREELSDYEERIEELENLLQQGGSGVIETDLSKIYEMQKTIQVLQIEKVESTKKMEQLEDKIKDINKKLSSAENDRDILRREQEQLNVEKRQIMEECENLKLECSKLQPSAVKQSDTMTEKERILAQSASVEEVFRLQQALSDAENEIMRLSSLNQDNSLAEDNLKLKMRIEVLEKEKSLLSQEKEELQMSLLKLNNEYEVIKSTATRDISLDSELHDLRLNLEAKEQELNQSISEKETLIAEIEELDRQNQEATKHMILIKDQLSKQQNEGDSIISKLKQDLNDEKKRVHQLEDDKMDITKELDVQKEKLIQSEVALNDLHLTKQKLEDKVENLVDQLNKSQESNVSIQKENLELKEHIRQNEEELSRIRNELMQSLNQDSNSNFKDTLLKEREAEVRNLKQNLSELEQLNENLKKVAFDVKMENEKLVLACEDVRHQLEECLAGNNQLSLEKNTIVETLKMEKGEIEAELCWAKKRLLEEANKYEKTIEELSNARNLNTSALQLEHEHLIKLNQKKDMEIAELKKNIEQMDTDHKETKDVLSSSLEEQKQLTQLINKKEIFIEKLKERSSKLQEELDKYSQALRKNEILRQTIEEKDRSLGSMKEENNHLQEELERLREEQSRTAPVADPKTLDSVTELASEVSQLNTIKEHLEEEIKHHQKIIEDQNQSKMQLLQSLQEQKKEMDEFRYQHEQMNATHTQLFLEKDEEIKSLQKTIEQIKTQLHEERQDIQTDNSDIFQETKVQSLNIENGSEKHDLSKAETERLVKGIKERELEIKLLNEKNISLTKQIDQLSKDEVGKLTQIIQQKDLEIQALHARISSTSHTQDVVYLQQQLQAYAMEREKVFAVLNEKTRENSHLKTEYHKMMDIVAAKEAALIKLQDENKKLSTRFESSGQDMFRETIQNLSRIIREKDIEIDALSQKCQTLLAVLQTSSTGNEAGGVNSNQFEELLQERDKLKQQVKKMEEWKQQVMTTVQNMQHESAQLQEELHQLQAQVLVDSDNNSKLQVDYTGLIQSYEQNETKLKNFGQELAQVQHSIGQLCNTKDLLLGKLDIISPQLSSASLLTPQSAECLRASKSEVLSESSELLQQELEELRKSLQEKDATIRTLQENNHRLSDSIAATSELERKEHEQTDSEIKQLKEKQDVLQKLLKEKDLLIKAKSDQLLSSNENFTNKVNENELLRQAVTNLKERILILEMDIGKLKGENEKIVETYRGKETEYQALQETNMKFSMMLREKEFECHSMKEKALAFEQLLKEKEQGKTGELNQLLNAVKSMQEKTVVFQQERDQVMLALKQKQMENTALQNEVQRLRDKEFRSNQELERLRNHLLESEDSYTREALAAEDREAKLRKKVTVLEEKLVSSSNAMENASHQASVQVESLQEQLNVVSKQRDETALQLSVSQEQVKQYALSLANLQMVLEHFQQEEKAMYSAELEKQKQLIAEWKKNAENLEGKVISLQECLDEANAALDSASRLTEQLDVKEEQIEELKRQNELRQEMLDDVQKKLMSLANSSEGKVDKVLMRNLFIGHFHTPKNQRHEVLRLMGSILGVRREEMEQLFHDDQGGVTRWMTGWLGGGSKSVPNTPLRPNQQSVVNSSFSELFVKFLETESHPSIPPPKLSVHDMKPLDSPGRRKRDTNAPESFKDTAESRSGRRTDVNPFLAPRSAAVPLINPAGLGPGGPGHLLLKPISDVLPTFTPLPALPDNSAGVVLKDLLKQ", "UniProt Q15172": "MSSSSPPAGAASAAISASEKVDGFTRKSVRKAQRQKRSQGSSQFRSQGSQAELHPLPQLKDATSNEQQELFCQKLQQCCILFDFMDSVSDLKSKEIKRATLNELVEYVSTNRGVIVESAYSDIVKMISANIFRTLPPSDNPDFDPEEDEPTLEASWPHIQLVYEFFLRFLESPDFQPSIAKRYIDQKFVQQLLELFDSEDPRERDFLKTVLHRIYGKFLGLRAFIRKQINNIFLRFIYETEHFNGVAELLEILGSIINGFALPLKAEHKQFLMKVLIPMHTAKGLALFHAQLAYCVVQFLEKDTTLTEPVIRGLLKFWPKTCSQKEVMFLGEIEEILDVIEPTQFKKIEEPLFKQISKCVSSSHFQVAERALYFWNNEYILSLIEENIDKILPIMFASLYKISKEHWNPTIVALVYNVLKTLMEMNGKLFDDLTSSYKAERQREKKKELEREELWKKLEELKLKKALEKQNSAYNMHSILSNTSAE", "UniProt Q562E7": "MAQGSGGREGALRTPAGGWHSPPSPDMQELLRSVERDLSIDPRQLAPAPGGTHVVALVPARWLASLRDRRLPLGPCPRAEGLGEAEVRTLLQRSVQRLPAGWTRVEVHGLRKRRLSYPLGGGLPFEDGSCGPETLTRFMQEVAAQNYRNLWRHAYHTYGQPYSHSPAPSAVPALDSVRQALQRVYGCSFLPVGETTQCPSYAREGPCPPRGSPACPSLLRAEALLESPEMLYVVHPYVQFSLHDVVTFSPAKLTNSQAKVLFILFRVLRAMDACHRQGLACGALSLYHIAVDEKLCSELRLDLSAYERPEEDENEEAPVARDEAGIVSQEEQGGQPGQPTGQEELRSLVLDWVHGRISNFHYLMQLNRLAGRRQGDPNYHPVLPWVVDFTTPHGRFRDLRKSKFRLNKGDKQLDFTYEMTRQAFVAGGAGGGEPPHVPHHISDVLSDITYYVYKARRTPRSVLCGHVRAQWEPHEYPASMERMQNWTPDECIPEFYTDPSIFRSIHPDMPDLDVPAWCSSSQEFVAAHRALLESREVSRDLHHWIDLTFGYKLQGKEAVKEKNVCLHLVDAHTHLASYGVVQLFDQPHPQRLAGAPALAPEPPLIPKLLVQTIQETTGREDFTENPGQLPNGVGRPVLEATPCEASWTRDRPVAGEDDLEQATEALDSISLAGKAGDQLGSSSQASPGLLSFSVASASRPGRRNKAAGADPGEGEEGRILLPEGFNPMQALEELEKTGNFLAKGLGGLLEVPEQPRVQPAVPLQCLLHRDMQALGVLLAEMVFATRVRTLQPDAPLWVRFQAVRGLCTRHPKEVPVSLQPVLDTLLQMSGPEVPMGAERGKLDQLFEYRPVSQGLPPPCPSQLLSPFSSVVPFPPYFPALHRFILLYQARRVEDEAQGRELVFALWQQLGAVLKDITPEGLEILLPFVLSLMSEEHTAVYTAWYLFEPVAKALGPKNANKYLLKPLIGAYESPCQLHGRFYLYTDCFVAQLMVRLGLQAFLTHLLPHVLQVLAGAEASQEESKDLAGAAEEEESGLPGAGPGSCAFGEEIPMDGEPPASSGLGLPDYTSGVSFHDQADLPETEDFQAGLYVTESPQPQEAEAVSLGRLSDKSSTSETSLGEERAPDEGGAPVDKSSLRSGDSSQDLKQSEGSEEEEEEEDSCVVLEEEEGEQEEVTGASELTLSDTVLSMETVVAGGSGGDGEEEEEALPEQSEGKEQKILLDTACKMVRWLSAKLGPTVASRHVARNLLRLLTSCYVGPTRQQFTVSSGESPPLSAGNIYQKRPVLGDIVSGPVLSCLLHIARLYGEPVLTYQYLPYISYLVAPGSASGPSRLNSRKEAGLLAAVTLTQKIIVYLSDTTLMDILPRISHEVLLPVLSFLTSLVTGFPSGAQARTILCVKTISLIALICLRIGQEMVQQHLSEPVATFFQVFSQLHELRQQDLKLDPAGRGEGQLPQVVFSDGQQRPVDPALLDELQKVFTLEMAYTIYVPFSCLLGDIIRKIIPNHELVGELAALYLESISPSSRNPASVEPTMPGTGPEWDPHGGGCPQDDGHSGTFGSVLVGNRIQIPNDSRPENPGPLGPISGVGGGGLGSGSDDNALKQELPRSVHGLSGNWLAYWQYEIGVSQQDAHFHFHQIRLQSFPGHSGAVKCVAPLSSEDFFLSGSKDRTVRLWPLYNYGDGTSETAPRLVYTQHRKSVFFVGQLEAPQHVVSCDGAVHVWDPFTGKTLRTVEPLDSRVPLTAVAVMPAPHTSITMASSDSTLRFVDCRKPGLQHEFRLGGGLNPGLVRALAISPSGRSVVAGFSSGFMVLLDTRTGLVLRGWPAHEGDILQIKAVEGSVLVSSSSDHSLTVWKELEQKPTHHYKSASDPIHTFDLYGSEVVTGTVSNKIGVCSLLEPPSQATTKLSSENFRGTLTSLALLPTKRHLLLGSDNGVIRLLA", "UniProt Q3MII6": "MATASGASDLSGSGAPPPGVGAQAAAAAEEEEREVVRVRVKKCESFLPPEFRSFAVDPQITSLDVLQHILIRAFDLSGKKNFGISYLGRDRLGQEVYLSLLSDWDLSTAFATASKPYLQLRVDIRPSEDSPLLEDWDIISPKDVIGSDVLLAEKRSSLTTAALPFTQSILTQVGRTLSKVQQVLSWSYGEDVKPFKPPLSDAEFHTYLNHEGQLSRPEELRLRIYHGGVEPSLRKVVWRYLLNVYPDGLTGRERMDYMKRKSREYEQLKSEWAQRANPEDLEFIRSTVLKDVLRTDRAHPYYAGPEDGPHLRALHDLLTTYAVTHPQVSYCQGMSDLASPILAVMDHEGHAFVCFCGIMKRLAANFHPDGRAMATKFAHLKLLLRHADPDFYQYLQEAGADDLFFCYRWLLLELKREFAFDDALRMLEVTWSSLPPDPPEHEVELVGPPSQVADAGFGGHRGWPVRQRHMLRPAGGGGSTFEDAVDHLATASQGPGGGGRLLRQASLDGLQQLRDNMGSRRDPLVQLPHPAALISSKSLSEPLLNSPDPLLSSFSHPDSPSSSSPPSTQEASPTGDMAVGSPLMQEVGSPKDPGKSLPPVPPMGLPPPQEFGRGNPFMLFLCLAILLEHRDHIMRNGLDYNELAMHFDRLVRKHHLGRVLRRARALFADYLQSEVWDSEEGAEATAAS", "UniProt Q15906, whole entry": "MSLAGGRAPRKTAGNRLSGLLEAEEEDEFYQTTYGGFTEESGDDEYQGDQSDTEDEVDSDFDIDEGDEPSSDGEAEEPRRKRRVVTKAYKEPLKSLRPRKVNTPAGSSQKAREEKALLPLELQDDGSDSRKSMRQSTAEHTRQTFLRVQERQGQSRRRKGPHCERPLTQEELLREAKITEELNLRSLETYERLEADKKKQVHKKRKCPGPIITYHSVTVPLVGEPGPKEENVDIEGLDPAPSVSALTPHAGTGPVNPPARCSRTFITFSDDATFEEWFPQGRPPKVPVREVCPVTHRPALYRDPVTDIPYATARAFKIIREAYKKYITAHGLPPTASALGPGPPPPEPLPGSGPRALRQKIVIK"},
  "source": "the supplement of paper PMC12595434",
  "about": "“Development of retinoid nuclear receptor pathway antagonists through targeting aldehyde dehydrogenase 1A3” (iScience, 2025)",
  "note": "Some of the results follow. The data scatter; read single values as rough.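 Many melting curves are irregular; where none melted, Tm was taken as 64 °C.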",
  "data": [
    {"compound": "CCc1cnccc1C(=O)Nc1cc2c(cc1F)NC(=O)CC2", "experiment": "melting temperature shift (DMSO Tm minus MBE1-treated Tm) in cellular thermal proteome profiling; higher = less thermal stabilization by MBE1 (negative = stabilized by MBE1)", "settings": "A375; MBE1 concentration: 100 nM", "units": {"melting temperature shift": "°C"}, "values": [
      {"target": "PREPL (UniProt Q4J6C6)", "melting temperature shift": -0.581},
      {"target": "TWISTNB (UniProt Q3B726)", "melting temperature shift": 0.141},
      {"target": "UniProt Q15208", "melting temperature shift": 0.0988},
      {"target": "NOMO1 (UniProt Q15155)", "melting temperature shift": -0.959},
      {"target": "TST (UniProt Q16762)", "melting temperature shift": -0.0641},
      {"target": "NRF1 (UniProt Q16656)", "melting temperature shift": 0.134},
      {"target": "NONO (UniProt Q15233)", "melting temperature shift": -0.269},
      {"target": "UniProt Q53F19", "melting temperature shift": -0.275},
      {"target": "SEC23B (UniProt Q15437)", "melting temperature shift": 1.2},
      {"target": "UniProt Q16181", "melting temperature shift": -0.61},
      {"target": "TRIP11 (UniProt Q15643)", "melting temperature shift": -1.52},
      {"target": "PDCD2 (UniProt Q16342)", "melting temperature shift": -0.557},
      {"target": "LRRC41 (UniProt Q15345)", "melting temperature shift": -0.95},
      {"target": "UniProt Q15139", "melting temperature shift": 1.97},
      {"target": "ANO6 (UniProt Q4KMQ2)", "melting temperature shift": -0.147},
      {"target": "NAB2 (UniProt Q15742)", "melting temperature shift": -0.0256},
      {"target": "ATP6AP1 (UniProt Q15904)", "melting temperature shift": -1.13},
      {"target": "TCEAL1 (UniProt Q15170)", "melting temperature shift": -1.62},
      {"target": "MAPRE1 (UniProt Q15691)", "melting temperature shift": 0.269},
      {"target": "TBCE (UniProt Q15813)", "melting temperature shift": -0.46},
      {"target": "PWP2 (UniProt Q15269)", "melting temperature shift": 0.055},
      {"target": "MAPRE2 (UniProt Q15555)", "melting temperature shift": -0.699},
      {"target": "UniProt Q53EU6", "melting temperature shift": 0.708},
      {"target": "LSM12 (UniProt Q3MHD2)", "melting temperature shift": -0.919},
      {"target": "UniProt Q3T8J9", "melting temperature shift": -5.35},
      {"target": "AGK (UniProt Q53H12)", "melting temperature shift": -0.872},
      {"target": "ARHGAP29 (UniProt Q52LW3)", "melting temperature shift": -8.97},
      {"target": "RSU1 (UniProt Q15404)", "melting temperature shift": -1.22},
      {"target": "QSER1 (UniProt Q2KHR3)", "melting temperature shift": 0.416},
      {"target": "PPP2R5A (UniProt Q15172)", "melting temperature shift": 0.421},
      {"target": "HNRNPUL2 (UniProt Q1KMD3)", "melting temperature shift": 0.275},
      {"target": "PFKFB3 (UniProt Q16875)", "melting temperature shift": -0.667},
      {"target": "DHCR24 (UniProt Q15392)", "melting temperature shift": 1.03},
      {"target": "WDR81 (UniProt Q562E7)", "melting temperature shift": -1.02},
      {"target": "CPSF6 (UniProt Q16630)", "melting temperature shift": -1.05},
      {"target": "UniProt Q3MII6", "melting temperature shift": 0.278},
      {"target": "VPS72 (UniProt Q15906)", "melting temperature shift": -0.92},
      {"target": "GLYR1 (UniProt Q49A26)", "melting temperature shift": -0.449}
    ]},
    {"compound": "CCc1cnccc1C(=O)Nc1cc2c(cc1F)NC(=O)CC2", "experiment": "melting temperature shift (DMSO Tm minus MBE1-treated Tm) in cellular thermal proteome profiling; higher = less thermal stabilization by MBE1 (negative = stabilized by MBE1)", "settings": "A375; MBE1 concentration: 1 uM", "units": {"melting temperature shift": "°C"}, "values": [
      {"target": "PREPL (UniProt Q4J6C6)", "melting temperature shift": 0.36},
      {"target": "TWISTNB (UniProt Q3B726)", "melting temperature shift": 0.216},
      {"target": "UniProt Q15208", "melting temperature shift": -0.212},
      {"target": "NOMO1 (UniProt Q15155)", "melting temperature shift": 0.498},
      {"target": "TST (UniProt Q16762)", "melting temperature shift": 0.00641},
      {"target": "NRF1 (UniProt Q16656)", "melting temperature shift": -0.623},
      {"target": "NONO (UniProt Q15233)", "melting temperature shift": -0.224},
      {"target": "UniProt Q53F19", "melting temperature shift": 0.237},
      {"target": "SEC23B (UniProt Q15437)", "melting temperature shift": -0.0488},
      {"target": "UniProt Q16181", "melting temperature shift": 0.0201},
      {"target": "TRIP11 (UniProt Q15643)", "melting temperature shift": -0.946},
      {"target": "PDCD2 (UniProt Q16342)", "melting temperature shift": -0.724},
      {"target": "LRRC41 (UniProt Q15345)", "melting temperature shift": -0.128},
      {"target": "UniProt Q15139", "melting temperature shift": 0.586},
      {"target": "ANO6 (UniProt Q4KMQ2)", "melting temperature shift": -0.116},
      {"target": "NAB2 (UniProt Q15742)", "melting temperature shift": -0.737},
      {"target": "ATP6AP1 (UniProt Q15904)", "melting temperature shift": 0.563},
      {"target": "TCEAL1 (UniProt Q15170)", "melting temperature shift": -4.19},
      {"target": "MAPRE1 (UniProt Q15691)", "melting temperature shift": 0.0244},
      {"target": "TBCE (UniProt Q15813)", "melting temperature shift": -0.245},
      {"target": "PWP2 (UniProt Q15269)", "melting temperature shift": -0.256},
      {"target": "MAPRE2 (UniProt Q15555)", "melting temperature shift": 0.25},
      {"target": "UniProt Q53EU6", "melting temperature shift": 0.397},
      {"target": "LSM12 (UniProt Q3MHD2)", "melting temperature shift": -0.832},
      {"target": "UniProt Q3T8J9", "melting temperature shift": 0.628},
      {"target": "AGK (UniProt Q53H12)", "melting temperature shift": 0.309},
      {"target": "ARHGAP29 (UniProt Q52LW3)", "melting temperature shift": -5.58},
      {"target": "RSU1 (UniProt Q15404)", "melting temperature shift": -0.128},
      {"target": "QSER1 (UniProt Q2KHR3)", "melting temperature shift": 0.00641},
      {"target": "PPP2R5A (UniProt Q15172)", "melting temperature shift": 0.635},
      {"target": "HNRNPUL2 (UniProt Q1KMD3)", "melting temperature shift": -0.195},
      {"target": "PFKFB3 (UniProt Q16875)", "melting temperature shift": 0.0488},
      {"target": "DHCR24 (UniProt Q15392)", "melting temperature shift": 1.11},
      {"target": "WDR81 (UniProt Q562E7)", "melting temperature shift": -0.0235},
      {"target": "CPSF6 (UniProt Q16630)", "melting temperature shift": -1.3},
      {"target": "UniProt Q3MII6", "melting temperature shift": 0.108},
      {"target": "VPS72 (UniProt Q15906)", "melting temperature shift": -0.85},
      {"target": "GLYR1 (UniProt Q49A26)", "melting temperature shift": -0.182}
    ]}
  ]
}
